Nine molecules from publication PMC8764063 can be followed below.

The chains behind the UniProt entries cited, without tags or fusion partners. Where a name states a change or a piece, a line headed by the entry shows the natural chain unless it says otherwise. A line that says so, or that is headed by a name, gives the form on record, which may keep a tag or linker.
HA-tagged mutant tPARP1 (HA-mtPARP1, tPARP1 E988A) (P09874, form named): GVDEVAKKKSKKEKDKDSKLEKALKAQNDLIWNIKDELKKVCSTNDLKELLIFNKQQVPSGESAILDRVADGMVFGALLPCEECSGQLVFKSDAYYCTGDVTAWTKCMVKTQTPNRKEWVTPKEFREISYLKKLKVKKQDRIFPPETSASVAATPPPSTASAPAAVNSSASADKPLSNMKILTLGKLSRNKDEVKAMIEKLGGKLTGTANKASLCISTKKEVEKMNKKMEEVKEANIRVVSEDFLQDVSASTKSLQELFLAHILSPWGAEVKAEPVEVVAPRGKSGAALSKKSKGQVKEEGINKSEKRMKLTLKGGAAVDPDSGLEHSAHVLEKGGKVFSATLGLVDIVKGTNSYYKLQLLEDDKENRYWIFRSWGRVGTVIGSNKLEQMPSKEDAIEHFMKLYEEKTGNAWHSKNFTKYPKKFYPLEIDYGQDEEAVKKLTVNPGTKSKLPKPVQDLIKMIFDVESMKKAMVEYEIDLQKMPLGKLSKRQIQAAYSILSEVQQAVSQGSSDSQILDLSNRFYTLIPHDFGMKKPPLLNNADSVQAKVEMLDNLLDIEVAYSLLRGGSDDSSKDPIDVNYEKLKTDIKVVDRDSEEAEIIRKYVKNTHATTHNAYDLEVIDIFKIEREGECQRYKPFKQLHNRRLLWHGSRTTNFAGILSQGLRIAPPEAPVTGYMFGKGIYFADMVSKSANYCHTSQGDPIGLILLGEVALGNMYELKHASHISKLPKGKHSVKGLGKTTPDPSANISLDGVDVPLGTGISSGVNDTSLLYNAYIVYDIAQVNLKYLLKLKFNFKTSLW
UniProt Q9Y530: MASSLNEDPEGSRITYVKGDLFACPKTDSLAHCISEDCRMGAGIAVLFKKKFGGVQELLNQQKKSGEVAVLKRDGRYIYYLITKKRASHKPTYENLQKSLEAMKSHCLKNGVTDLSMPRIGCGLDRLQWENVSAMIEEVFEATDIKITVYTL
HA-tagged mutant TARG1 (HA-mTARG1) (Q9Y530, form named): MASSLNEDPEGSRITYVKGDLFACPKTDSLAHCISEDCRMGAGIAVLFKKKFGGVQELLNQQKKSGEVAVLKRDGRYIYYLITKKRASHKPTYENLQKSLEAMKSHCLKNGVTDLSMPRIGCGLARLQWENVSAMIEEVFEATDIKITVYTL
UniProt Q9H1D9: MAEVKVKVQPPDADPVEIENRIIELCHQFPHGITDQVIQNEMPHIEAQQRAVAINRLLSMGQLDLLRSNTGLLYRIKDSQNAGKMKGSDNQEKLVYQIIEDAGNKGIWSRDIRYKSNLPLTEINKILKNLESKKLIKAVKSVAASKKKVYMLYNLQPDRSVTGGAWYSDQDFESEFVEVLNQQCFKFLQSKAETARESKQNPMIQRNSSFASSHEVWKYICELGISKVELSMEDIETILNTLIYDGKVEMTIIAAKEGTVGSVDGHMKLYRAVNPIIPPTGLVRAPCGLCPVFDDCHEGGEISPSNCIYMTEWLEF
UniProt Q9Y2Y1: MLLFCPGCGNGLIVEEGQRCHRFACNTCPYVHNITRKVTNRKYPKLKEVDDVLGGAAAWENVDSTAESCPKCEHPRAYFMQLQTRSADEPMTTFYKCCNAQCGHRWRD
UniProt Q9BUI4: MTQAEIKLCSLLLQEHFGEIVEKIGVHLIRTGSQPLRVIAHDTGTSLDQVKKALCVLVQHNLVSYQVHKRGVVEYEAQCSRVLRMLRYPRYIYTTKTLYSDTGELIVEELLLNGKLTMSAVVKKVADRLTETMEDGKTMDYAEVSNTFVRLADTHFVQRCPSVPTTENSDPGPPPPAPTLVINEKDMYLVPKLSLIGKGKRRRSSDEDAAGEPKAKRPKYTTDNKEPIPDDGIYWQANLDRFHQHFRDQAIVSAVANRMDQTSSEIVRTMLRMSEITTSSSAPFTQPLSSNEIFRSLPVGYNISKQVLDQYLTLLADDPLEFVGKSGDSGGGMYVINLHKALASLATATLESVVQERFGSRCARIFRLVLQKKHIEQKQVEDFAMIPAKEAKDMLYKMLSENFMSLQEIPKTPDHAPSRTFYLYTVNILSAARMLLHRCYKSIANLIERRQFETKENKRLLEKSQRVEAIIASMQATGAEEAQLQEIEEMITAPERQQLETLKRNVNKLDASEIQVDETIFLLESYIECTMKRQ

No constants are given. Whether binding was seen depends on the method and setting. In cells and extracts the contact can be indirect. Some binding calls cover weakened binding; strength is not graded here. For part of these data: Where a sequence is shown, tags or fusion partners need not be part of it.

The target of experiment [1] is HA-tagged mutant tPARP1 (HA-mtPARP1, tPARP1 E988A) (human) (UniProt P09874). In words: co-IP; myc-tagged Pol III subunit and HA-tagged protein co-transfected in U2OS-PARP1 knockout cells; NETN100 lysate, antibody and beads 2 h at 4 °C; western blotting. (Immunoblotting shows a protein as a band on a membrane.)
The target of experiment [2] is HA-tagged mutant TARG1 (HA-mTARG1) (UniProt Q9Y530). The description is as above.
The target in experiment [3] is POLR3F (human (endogenous in U2OS)) (UniProt Q9H1D9). Nature of the experiment: co-IP; IP of POLR3F from the cytoplasmic fraction of U2OS cells treated with or without poly(dA-dT) (5 ug/ml, six hours); subunits detected by immunoblot.
Another experiment has as its target FLAG-POLR3F (human) (UniProt Q9H1D9). In words: co-IP; Pol III complex purified by FLAG IP from U2OS cells stably expressing FLAG-POLR3F, with or without ADP-ribosylation by tPARP1 in vitro; subunits detected by Western blot with antibodies against the individual subunits; IgG as control IP.

For the molecule myc-POLR3F (from UniProt Q9H1D9 1-316), the binding result in experiment [1] and in experiment [2] was “binds” throughout.

Regarding POLR3K (from UniProt Q9Y2Y1 1-108), the binding result (in experiment [3]; in the experiment with FLAG-POLR3F (human)) was “binds” in each case.

For the molecule POLR3C (from UniProt Q9BUI4 1-534), the binding result (in experiment [3]; with FLAG-POLR3F (human)) was “binds” throughout.

B1: POLR3B (protein, UniProt Q9NW08 1-1133)
chain: MDVLAEEFGNLTPEQLAAPIPTVEEKWRLLPAFLKVKGLVKQHIDSFNYFINVEIKKIMKANEKVTSDADPMWYLKYLNIYVGLPDVEESFNVTRPVSPHECRLRDMTYSAPITVDIEYTRGSQRIIRNALPIGRMPIMLRSSNCVLTGKTPAEFAKLNECPLDPGGYFIVKGVEKVILIQEQLSKNRIIVEADRKGAVGASVTSSTHEKKSRTNMAVKQGRFYLRHNTLSEDIPIVIIFKAMGVESDQEIVQMIGTEEHVMAAFGPSLEECQKAQIFTQMQALKYIGNKVRRQRMWGGGPKKTKIEEARELLASTILTHVPVKEFNFRAKCIYTAVMVRRVILAQGDNKVDDRDYYGNKRLELAGQLLSLLFEDLFKKFNSEMKKIADQVIPKQRAAQFDVVKHMRQDQITNGMVNAISTGNWSLKRFKMDRQGVTQVLSRLSYISALGMMTRISSQFEKTRKVSGPRSLQPSQWGMLCPSDTPEGEACGLVKNLALMTHITTDMEDGPIVKLASNLGVEDVNLLCGEELSYPNVFLVFLNGNILGVIRDHKKLVNTFRLMRRAGYINEFVSISTNLTDRCVYISSDGGRLCRPYIIVKKQKPAVTNKHMEELAQGYRNFEDFLHESLVEYLDVNEENDCNIALYEHTINKDTTHLEIEPFTLLGVCAGLIPYPHHNQSPRNTYQCAMGKQAMGTIGYNQRNRIDTLMYLLAYPQKPMVKTKTIELIEFEKLPAGQNATVAVMSYSGYDIEDALVLNKASLDRGFGRCLVYKNAKCTLKRYTNQTFDKVMGPMLDAATRKPIWRHEILDADGICSPGEKVENKQVLVNKSMPTVTQIPLEGSNVPQQPQYKDVPITYKGATDSYIEKVMISSNAEDAFLIKMLLRQTRRPEIGDKFSSRHGQKGVCGLIVPQEDMPFCDSGICPDIIMNPHGFPSRMTVGKLIELLAGKAGVLDGRFHYGTAFGGSKVKDVCEDLVRHGYNYLGKDYVTSGITGEPLEAYIYFGPVYYQKLKHMVLDKMHARARGPRAVLTRQPTEGRSRDGGLRLGEMERDCLIGYGASMLLLERLMISSDAFEVDVCGQCGLLGYSGWCHYCKSSCHVSSLRIPYACKLLFQELQSMNIIPRLKLSKYNE
Consider B1, for which the binding entry (in experiment [3]; with FLAG-POLR3F (human)) was “binds” throughout.

B2: POLR3D (protein, UniProt P05423 1-398)
chain: MSEGNAAGEPSTPGGPRPLLTGARGLIGRRPAPPLTPGRLPSIRSRDLTLGGVKKKTFTPNIISRKIKEEPKEEVTVKKEKRERDRDRQREGHGRGRGRPEVIQSHSIFEQGPAEMMKKKGNWDKTVDVSDMGPSHIINIKKEKRETDEETKQILRMLEKDDFLDDPGLRNDTRNMPVQLPLAHSGWLFKEENDEPDVKPWLAGPKEEDMEVDIPAVKVKEEPRDEEEEAKMKAPPKAARKTPGLPKDVSVAELLRELSLTKEEELLFLQLPDTLPGQPPTQDIKPIKTEVQGEDGQVVLIKQEKDREAKLAENACTLADLTEGQVGKLLIRKSGRVQLLLGKVTLDVTMGTACSFLQELVSVGLGDSRTGEMTVLGHVKHKLVCSPDFESLLDHKHR
On to B2, for which the binding result (in experiment [3]; with FLAG-POLR3F (human)) was “binds” throughout.

B3: POLR3H (protein, UniProt Q9Y535 1-204)
chain: MFVLVEMVDTVRIPPWQFERKLNDSIAEELNKKLANKVVYNVGLCICLFDITKLEDAYVFPGDGASHTKVHFRCVVFHPFLDEILIGKIKGCSPEGVHVSLGFFDDILIPPESLQQPAKFDEAEQVWVWEYETEEGAHDLYMDTGEEIRFRVVDESFVDTSPTGPSSADATTSSEELPKKEAPYTLVGSISEPGLGLLSWWTSN
B3: the binding entry (in experiment [3]; with FLAG-POLR3F (human)) was “binds” each time.

B4: POLR3A (protein, UniProt O14802 1-1390)
chain: MVKEQFRETDVAKKISHICFGMKSPEEMRQQAHIQVVSKNLYSQDNQHAPLLYGVLDHRMGTSEKDRPCETCGKNLADCLGHYGYIDLELPCFHVGYFRAVIGILQMICKTCCHIMLSQEEKKQFLDYLKRPGLTYLQKRGLKKKISDKCRKKNICHHCGAFNGTVKKCGLLKIIHEKYKTNKKVVDPIVSNFLQSFETAIEHNKEVEPLLGRAQENLNPLVVLNLFKRIPAEDVPLLLMNPEAGKPSDLILTRLLVPPLCIRPSVVSDLKSGTNEDDLTMKLTEIIFLNDVIKKHRISGAKTQMIMEDWDFLQLQCALYINSELSGIPLNMAPKKWTRGFVQRLKGKQGRFRGNLSGKRVDFSGRTVISPDPNLRIDEVAVPVHVAKILTFPEKVNKANINFLRKLVQNGPEVHPGANFIQQRHTQMKRFLKYGNREKMAQELKYGDIVERHLIDGDVVLFNRQPSLHKLSIMAHLARVKPHRTFRFNECVCTPYNADFDGDEMNLHLPQTEEAKAEALVLMGTKANLVTPRNGEPLIAAIQDFLTGAYLLTLKDTFFDRAKACQIIASILVGKDEKIKVRLPPPTILKPVTLWTGKQIFSVILRPSDDNPVRANLRTKGKQYCGKGEDLCANDSYVTIQNSELMSGSMDKGTLGSGSKNNIFYILLRDWGQNEAADAMSRLARLAPVYLSNRGFSIGIGDVTPGQGLLKAKYELLNAGYKKCDEYIEALNTGKLQQQPGCTAEETLEALILKELSVIRDHAGSACLRELDKSNSPLTMALCGSKGSFINISQMIACVGQQAISGSRVPDGFENRSLPHFEKHSKLPAAKGFVANSFYSGLTPTEFFFHTMAGREGLVDTAVKTAETGYMQRRLVKSLEDLCSQYDLTVRSSTGDIIQFIYGGDGLDPAAMEGKDEPLEFKRVLDNIKAVFPCPSEPALSKNELILTTESIMKKSEFLCCQDSFLQEIKKFIKGVSEKIKKTRDKYGINDNGTTEPRVLYQLDRITPTQVEKFLETCRDKYMRAQMEPGSAVGALCAQSIGEPGTQMTLKTFHFAGVASMNITLGVPRIKEIINASKAISTPIITAQLDKDDDADYARLVKGRIEKTLLGEISEYIEEVFLPDDCFILVKLSLERIRLLRLEVNAETVRYSICTSKLRVKPGDVAVHGEAVVCVTPRENSKSSMYYVLQFLKEDLPKVVVQGIPEVSRAVIHIDEQSGKEKYKLLVEGDNLRAVMATHGVKGTRTTSNNTYEVEKTLGIEAARTTIINEIQYTMVNHGMSIDRRHVMLLSDLMTYKGEVLGITRFGLAKMKESVLMLASFEKTADHLFDAAYFGQKDSVCGVSECIIMGIPMNIGTGLFKLLHKADRDPNPPKRPLIFDTNEFHIPLVT
B4: the binding result (in experiment [3]; with FLAG-POLR3F (human)) was “binds” each time.

B5: myc-POLR3A (protein, UniProt O14802 1-1390)
chain: B4 chain
Regarding B5, the binding result in experiment [1] and in experiment [2] was “binds” in each case.

B6: POLR3E (protein, UniProt Q9NVU0 1-708)
chain: MANEEDDPVVQEIDVYLAKSLAEKLYLFQYPVRPASMTYDDIPHLSAKIKPKQQKVELEMAIDTLNPNYCRSKGEQIALNVDGACADETSTYSSKLMDKQTFCSSQTTSNTSRYAAALYRQGELHLTPLHGILQLRPSFSYLDKADAKHREREAANEAGDSSQDEAEDDVKQITVRFSRPESEQARQRRVQSYEFLQKKHAEEPWVHLHYYGLRDSRSEHERQYLLCPGSSGVENTELVKSPSEYLMMLMPPSQEEEKDKPVAPSNVLSMAQLRTLPLADQIKILMKNVKVMPFANLMSLLGPSIDSVAVLRGIQKVAMLVQGNWVVKSDILYPKDSSSPHSGVPAEVLCRGRDFVMWKFTQSRWVVRKEVATVTKLCAEDVKDFLEHMAVVRINKGWEFILPYDGEFIKKHPDVVQRQHMLWTGIQAKLEKVYNLVKETMPKKPDAQSGPAGLVCGDQRIQVAKTKAQQNHALLERELQRRKEQLRVPAVPPGVRIKEEPVSEEGEEDEEQEAEEEPMDTSPSGLHSKLANGLPLGRAAGTDSFNGHPPQGCASTPVARELKAFVEATFQRQFVLTLSELKRLFNLHLASLPPGHTLFSGISDRMLQDTVLAAGCKQILVPFPPQTAASPDEQKVFALWESGDMSDQHRQVLLEIFSKNYRVRRNMIQSRLTQECGEDLSKQEVDKVLKDCCVSYGGMWYLKGTVQS
Take B6: the binding entry (in experiment [3]; with FLAG-POLR3F (human)) was “binds” each time.
